Measurements from paper PMC8316002, “Inhibition of Escherichia coli Lipoprotein Diacylglyceryl Transferase Is Insensitive to Resistance Caused by Deletion of Braun’s Lipoprotein” (Journal of Bacteriology, 2021).

System: E. coli Lgt-biotin
Experiment: Macrocyclic peptide library affinity selection (mRNA display) with NGS
Type: binding
Details: after five rounds of enrichment plus two off-rate rounds; 0.02% DDM, 250 nM biotinylated Lgt

Row | Substance | fraction of peptide sequences in final round of selection by NGS
1 | ClAcf-Asp-Gly-Bph-MeF-Bph-Ser-Arg-Cys-Gly-NH2 (sidechain bridge or staple) [compound 693, original hit macrocycle identified in the library screen] | 10.1%
2 | ClAcf-Arg-Gly-Bph-MeF-Bph-Ser-Arg-Cys-Gly-NH2 (sidechain bridge or staple) [compound 692, original hit macrocycle identified in the library screen] | 19.4%
